Article PMC7712234
These are yes or no findings as the source states them, for the method shown. In cells and extracts the contact can be indirect. These calls come from enrichment with a bait or labelling near it, and not all partners need be listed.

Protein sequences, listed by entry. Tags and fused reporters are not part of them. Lines headed by an entry give the natural chain unless they say otherwise; changes in a name come on top.
UniProt C1H8F5: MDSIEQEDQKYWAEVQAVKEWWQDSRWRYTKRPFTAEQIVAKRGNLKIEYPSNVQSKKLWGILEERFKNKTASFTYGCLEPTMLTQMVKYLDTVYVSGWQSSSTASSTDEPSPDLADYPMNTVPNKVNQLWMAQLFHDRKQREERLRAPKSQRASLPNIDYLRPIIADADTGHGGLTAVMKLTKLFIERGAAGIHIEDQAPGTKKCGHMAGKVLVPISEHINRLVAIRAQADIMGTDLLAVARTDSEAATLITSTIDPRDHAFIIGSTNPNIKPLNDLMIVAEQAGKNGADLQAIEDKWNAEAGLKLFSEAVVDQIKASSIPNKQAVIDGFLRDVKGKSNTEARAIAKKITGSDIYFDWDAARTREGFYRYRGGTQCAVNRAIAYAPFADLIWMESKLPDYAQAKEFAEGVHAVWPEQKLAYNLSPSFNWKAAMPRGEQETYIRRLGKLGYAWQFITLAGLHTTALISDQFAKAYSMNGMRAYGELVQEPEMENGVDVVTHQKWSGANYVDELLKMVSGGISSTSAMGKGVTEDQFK
UniProt C1H6Y5: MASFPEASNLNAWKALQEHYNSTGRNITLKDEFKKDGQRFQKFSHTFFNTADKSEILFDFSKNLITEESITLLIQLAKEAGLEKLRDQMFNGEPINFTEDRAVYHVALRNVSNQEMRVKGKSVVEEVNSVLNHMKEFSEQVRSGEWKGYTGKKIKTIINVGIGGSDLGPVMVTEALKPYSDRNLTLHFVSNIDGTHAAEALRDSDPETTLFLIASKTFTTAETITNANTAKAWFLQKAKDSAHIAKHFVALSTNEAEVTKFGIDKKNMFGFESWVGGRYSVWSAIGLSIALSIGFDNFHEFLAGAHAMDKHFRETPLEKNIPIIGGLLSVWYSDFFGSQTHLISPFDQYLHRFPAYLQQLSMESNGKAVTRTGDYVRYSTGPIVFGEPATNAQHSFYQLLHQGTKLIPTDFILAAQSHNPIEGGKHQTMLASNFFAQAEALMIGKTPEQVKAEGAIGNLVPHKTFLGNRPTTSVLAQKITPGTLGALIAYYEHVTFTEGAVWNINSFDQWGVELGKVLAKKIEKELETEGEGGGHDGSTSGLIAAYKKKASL
UniProt C1H483: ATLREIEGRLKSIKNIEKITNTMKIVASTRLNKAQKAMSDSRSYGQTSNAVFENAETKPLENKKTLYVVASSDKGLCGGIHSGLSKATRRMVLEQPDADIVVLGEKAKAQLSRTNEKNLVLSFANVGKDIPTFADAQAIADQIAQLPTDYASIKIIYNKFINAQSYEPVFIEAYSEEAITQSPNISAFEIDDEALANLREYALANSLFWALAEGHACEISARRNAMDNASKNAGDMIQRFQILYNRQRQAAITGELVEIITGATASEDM

B1: triosephosphate isomerase (protein, UniProt Q96VN5 1-249)
chain: MPRKFFVGGNFKMNGTAKSITHIITNLNSAKLDPSTEIVIAPPAIYLVLARQLANGQVAVSAQNVFDKPNGAFTGELSVEQLRDEKITWTLAGHSERRVLLREDDEFVARKTKAAINGGLNVILCIGESLEEREAGKTIDVVTRQLDAVAEEVSPAEWNKVVIAYEPIWAIGTGKVATTEQAQEVHASIRKWLNEKISPEAAENIRVIYGGSVTENNCRDLAAQPDVDGFLVGGASLKPAFVDIINARL
B2: fructose-bisphosphate aldolase (protein, UniProt Q96UH7 1-360)
chain: MGVKDILSRKTGVIVGDDVLRLFQHAQEKVFAIPAINVTSSSTVVAALEAARDKNSPIILQVSQGGAAFFAGKGVPNGKQEASVAGAIAAAHYIRSIAPSYGIPVVLHTDHCAKKLLPWLDGMLDADECYFKLHNEPLFSSHMIDLSEESVEWNIETTAKYLKRAAPMKQWLEMEIGITGGEEDGVNNESVDNNSLYTQPEDIYTIYKTLSAISPYFSIAAGFGNVHGVYKPGNVRLHPELLSKHQAYVKEKTGSSKNKPVYLVFHGGSGSTKAEFKEAISYGVVKVNLDTDLQYAYLSGVRDFVLKKKDYLMSAVGNPEGEDKPNKKYFDPRVWIREGEKTMSARVQEAFDDFNTSNQL
B3: isocitrate dehydrogenase subunit 1 (protein, UniProt C1GQR1 1-388)
chain: MFSLRTAQSAQSLFCTIAKNSSTCLSRSSIATRTFATVQSDIFKPTKYGGKYTVTLIPGDGIGAEVAESVKTIFKADNVPIEWEQVDVSGVDVGNKRSEDLFKESIASLRRNKLGLKGILHTPVEISGHQSFNVALRQELDIYASIILIKNIPGYKTRHDNVDLCIIRENTEGEYSGLEHESVSGVVESLKIITRAKSERIAKFAFSFALANNRKKVTCIHKANIMKLADGLFRSTFHKVAESFPTLEANDMIVDNASMQAVSRPQQFDVMVMPNLYGGILSNVGAALVGGPGIVPGCNMGREVAVFEPGCRHVGLDIKGKDQANPTALILSGSMLLRHLGLDEHANRISKAVYDVIGEGVVRTRDMGGQATTNEFTRAVLDKMEAAL

biological target: Paracoccidioides lutzii recombinant isocitrate lyase (Paracoccidioides lutzii) (UniProt C1H8F5); assay: affinity purification with mass spectrometry; recombinant ICL immobilised on Ni-NTA resin, incubated 2 h with the soluble protein extract of P. lutzii mycelium-to-yeast transition cells; washed, eluted, tryptic digestion, nanoUPLC-HDMS^E; proteins also found with resin alone excluded; only the target purified

Row | binding | Molecule
1 | binds | B1
2 | binds | B2

biological target: Paracoccidioides lutzii recombinant isocitrate lyase (Paracoccidioides lutzii) (UniProt C1H8F5); assay: affinity purification with mass spectrometry; recombinant ICL immobilised on Ni-NTA resin, incubated 2 h with the soluble protein extract of P. lutzii mycelium; washed, eluted, tryptic digestion, nanoUPLC-HDMS^E; proteins also found with resin alone excluded; only the target purified

Row | binding | Molecule
3 | binds | B1
4 | binds | B2

biological target: Paracoccidioides lutzii recombinant isocitrate lyase (Paracoccidioides lutzii) (UniProt C1H8F5); assay: affinity purification with mass spectrometry; recombinant ICL immobilised on Ni-NTA resin, incubated 2 h with the soluble protein extract of P. lutzii yeast cells; washed, eluted, tryptic digestion, nanoUPLC-HDMS^E; proteins also found with resin alone excluded; only the target purified

Row | binding | Molecule
5 | binds | glucose-6-phosphate isomerase (from UniProt C1H6Y5)
6 | binds | ATP synthase gamma chain (from UniProt C1H483)
7 | binds | B1
8 | binds | B2
9 | binds | B3
